Our source for the log2 fold change values is the supplement of paper PMC10849652.

The chains behind the UniProt entries cited, without tags or fusion partners. Where a name states a change or a piece, a line headed by the entry shows the natural chain unless it says otherwise.
UniProt Q9UHW9: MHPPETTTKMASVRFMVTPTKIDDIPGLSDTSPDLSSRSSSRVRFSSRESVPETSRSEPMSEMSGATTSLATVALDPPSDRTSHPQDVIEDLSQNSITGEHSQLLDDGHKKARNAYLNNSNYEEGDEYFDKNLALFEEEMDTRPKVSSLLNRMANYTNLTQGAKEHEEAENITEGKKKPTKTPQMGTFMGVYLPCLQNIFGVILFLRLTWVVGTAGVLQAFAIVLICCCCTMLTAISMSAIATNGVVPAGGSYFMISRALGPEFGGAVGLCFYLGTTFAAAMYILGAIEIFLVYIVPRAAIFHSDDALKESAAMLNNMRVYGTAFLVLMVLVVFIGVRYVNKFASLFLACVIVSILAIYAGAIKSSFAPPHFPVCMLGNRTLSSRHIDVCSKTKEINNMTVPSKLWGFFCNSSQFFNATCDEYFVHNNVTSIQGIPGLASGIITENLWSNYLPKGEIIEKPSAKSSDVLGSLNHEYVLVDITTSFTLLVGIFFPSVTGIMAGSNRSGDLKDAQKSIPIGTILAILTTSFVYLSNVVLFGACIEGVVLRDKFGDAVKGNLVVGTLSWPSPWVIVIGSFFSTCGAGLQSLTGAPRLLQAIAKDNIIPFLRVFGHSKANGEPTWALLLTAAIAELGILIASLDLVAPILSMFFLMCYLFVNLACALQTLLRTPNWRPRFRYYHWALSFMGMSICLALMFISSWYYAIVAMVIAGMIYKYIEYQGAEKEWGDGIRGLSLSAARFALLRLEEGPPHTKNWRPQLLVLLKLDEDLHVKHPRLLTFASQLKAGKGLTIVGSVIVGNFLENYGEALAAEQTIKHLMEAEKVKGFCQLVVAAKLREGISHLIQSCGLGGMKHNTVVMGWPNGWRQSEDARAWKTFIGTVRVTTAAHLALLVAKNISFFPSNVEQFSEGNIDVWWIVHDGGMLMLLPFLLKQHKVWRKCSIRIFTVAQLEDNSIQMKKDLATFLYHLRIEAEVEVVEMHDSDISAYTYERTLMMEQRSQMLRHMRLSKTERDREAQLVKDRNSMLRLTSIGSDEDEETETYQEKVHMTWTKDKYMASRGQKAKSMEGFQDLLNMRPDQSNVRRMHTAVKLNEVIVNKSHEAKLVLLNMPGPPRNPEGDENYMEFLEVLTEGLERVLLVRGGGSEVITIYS
UniProt P55011: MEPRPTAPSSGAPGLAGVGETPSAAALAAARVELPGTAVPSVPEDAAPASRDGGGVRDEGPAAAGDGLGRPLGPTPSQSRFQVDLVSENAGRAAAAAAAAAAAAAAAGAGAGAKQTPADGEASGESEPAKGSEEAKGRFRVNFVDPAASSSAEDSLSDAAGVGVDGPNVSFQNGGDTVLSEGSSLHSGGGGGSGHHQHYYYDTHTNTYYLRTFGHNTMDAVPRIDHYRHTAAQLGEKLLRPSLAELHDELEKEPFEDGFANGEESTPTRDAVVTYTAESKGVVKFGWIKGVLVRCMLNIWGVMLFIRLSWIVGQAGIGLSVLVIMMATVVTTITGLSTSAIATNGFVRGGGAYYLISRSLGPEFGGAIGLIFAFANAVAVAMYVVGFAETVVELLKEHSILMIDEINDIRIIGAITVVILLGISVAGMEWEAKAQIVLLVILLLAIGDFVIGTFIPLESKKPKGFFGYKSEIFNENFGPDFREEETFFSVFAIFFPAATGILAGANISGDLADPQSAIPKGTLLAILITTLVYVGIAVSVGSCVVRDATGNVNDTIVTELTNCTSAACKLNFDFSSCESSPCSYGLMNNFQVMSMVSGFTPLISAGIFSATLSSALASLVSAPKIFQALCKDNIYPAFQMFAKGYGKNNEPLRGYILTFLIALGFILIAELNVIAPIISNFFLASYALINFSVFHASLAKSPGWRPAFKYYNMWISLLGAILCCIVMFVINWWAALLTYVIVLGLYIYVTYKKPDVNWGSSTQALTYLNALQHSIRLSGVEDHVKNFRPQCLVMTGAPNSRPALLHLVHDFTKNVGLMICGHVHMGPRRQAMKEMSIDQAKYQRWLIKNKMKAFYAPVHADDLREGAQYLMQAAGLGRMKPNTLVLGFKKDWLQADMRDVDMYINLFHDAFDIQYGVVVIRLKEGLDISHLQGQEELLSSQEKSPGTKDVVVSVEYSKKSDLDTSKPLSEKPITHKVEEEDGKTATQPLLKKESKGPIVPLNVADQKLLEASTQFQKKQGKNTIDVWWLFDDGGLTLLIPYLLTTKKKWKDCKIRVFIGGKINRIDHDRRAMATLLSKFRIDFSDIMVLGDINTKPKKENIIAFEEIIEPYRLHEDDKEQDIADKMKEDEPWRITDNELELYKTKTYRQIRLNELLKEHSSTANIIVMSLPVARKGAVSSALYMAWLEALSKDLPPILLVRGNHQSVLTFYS
UniProt Q9ULF5: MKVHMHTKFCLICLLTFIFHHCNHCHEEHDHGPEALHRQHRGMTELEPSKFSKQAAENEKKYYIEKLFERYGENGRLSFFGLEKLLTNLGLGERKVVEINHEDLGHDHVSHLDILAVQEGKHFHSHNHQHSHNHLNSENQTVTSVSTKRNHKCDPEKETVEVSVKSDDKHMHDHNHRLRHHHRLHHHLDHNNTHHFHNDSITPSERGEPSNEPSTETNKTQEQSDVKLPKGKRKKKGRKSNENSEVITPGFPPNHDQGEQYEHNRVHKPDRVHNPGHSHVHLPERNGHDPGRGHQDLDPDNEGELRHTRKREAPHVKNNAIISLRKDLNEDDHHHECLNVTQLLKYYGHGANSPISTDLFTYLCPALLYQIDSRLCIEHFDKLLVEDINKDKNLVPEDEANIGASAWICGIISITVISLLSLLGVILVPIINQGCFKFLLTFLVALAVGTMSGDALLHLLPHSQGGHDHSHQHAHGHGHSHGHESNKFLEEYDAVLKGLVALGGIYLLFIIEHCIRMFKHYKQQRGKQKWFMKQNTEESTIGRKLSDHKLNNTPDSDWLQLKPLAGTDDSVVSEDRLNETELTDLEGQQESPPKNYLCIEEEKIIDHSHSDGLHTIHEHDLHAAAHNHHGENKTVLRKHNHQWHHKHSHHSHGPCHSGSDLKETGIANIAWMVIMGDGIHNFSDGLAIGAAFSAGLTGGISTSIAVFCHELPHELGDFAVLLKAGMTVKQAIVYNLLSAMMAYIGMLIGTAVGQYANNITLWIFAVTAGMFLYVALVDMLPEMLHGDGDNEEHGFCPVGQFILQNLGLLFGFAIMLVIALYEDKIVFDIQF
UniProt Q01650: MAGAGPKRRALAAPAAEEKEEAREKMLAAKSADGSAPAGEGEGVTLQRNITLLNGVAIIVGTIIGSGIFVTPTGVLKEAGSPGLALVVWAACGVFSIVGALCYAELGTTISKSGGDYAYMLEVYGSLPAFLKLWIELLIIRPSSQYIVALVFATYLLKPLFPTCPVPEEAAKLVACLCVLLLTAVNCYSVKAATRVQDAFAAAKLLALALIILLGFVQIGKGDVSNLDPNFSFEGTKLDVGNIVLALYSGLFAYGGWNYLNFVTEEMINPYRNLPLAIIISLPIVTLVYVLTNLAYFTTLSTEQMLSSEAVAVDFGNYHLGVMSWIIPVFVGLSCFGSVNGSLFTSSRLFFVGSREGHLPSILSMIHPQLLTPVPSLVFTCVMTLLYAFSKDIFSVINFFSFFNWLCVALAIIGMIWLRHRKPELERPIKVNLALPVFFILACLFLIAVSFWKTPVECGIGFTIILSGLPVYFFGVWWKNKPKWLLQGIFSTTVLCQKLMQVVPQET
UniProt Q9NQQ7: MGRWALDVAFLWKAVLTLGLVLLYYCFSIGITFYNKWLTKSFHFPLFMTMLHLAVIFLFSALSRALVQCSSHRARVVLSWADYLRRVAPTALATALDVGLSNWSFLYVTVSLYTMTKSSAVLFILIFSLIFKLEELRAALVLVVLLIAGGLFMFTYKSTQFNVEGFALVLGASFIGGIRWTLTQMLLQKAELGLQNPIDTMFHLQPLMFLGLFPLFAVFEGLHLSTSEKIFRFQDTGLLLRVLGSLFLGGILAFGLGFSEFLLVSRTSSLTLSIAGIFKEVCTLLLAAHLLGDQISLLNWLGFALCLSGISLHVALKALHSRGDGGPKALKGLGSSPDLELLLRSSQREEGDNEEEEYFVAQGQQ
UniProt O43772: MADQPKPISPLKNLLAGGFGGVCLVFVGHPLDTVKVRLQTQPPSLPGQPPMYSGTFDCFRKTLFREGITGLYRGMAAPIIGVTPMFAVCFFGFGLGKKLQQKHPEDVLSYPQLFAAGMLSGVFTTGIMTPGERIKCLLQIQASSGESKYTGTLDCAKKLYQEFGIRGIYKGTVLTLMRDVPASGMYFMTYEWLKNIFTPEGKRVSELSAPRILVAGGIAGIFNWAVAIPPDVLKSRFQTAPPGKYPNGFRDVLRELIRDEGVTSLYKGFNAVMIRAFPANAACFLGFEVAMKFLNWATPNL
UniProt Q9BQT8: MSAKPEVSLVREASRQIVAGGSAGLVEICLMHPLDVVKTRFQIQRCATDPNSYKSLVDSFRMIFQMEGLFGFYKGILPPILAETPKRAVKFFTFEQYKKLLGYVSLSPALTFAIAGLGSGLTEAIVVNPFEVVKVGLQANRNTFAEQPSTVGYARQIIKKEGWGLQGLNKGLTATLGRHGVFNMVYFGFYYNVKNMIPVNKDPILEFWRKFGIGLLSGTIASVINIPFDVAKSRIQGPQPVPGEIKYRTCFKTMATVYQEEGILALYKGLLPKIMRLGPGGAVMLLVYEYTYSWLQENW
UniProt Q9C0K1: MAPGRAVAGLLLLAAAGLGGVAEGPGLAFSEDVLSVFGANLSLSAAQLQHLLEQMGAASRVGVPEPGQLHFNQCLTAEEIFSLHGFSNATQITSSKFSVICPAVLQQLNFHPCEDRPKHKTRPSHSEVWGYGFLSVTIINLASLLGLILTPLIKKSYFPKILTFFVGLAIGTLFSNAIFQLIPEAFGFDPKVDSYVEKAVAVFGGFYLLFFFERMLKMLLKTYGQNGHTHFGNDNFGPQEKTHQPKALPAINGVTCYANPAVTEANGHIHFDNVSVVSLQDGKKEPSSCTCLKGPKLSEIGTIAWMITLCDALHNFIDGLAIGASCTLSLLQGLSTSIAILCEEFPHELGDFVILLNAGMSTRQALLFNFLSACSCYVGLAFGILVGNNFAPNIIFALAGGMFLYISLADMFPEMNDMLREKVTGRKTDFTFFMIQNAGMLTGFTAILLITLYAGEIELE
UniProt P43007: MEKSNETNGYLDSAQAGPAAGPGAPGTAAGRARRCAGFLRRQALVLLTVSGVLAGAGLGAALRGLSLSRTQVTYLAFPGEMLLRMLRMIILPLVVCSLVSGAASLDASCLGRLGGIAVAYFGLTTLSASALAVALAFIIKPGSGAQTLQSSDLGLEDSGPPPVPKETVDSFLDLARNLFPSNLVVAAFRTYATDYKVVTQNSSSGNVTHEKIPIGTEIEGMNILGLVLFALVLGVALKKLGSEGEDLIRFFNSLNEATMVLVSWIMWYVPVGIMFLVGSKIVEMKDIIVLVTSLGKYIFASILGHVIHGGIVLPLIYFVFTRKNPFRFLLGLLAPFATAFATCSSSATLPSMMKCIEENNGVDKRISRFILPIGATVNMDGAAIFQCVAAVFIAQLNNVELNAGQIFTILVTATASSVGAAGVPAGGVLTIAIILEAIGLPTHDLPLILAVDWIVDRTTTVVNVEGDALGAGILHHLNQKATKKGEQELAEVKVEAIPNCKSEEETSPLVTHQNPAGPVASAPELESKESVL
UniProt O15431: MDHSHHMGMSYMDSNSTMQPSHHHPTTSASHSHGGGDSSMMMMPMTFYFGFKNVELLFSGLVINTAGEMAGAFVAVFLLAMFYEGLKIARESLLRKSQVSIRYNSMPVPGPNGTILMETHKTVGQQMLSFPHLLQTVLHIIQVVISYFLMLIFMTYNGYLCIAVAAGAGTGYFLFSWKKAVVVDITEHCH
UniProt Q8WUM9: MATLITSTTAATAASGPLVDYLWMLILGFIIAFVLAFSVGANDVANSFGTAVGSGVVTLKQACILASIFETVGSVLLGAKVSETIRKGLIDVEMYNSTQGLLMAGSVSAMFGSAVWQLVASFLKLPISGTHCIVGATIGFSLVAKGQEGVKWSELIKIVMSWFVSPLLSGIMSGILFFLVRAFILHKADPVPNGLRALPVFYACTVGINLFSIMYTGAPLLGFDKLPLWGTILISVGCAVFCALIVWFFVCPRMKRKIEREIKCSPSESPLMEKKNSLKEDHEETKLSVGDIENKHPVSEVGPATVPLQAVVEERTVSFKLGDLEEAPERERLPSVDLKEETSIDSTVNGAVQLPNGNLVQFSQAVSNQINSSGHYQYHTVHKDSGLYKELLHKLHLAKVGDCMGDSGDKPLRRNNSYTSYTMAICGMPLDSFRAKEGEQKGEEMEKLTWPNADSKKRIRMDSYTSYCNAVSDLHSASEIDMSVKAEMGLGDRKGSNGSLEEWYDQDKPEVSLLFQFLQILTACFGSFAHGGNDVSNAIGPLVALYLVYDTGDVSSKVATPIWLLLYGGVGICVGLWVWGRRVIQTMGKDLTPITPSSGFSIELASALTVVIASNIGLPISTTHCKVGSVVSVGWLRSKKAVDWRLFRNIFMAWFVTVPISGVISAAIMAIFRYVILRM

This is one part of the list.

Compound in this assay: c1cn2cc(-c3ccc4cn[nH]c4c3)nc(Nc3ccc(N4CCOCC4)cc3)c2n1 [entospletinib]
Kind of assay: log2 fold change, soluble protein after heating vs DMSO (PISA); higher = thermal stabilisation; K562 cells, 10 uM, 30 min; active = over 0.2 and 3.5 SD of the protein, either way, in both replicates (recomputed). The essentials: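 K562 cells (2×10^6 cells/mL) were treated with 10 μM compound for 30 min, and aliquots were heated for 3 min over 48°C-58°C. Pooled aliquots were extracted in PBS with 0.5% NP-40 at 4°C, and the supernatant after 21,000xg for 90 min was measured by TMTpro 16plex LC-MS/MS with channel sums equalised. Reported thermal stability, relative to control samples and from duplicates, is a log2 fold change.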
In the case of SLC25A11 (UniProt Q02978), the log2 fold change is inactive: 0.018. SLC12A6 isoform 2 (UniProt Q9UHW9): the log2 fold change was inactive: 0.013.

Take SLC33A1 (UniProt O00400): the log2 fold change was inactive: 0.01.

Consider SLC2A13 (UniProt Q96QE2), for which the log2 fold change is inactive: -0.118. With SLC12A2 (UniProt P55011), the log2 fold change is inactive: -0.04.

As for SLC25A33 (UniProt Q9BSK2), the log2 fold change was inactive: -0.041. With SLC38A5 (UniProt Q8WUX1), the log2 fold change was inactive: 0.014. In the case of SLC25A10 isoform 2 (UniProt Q9UBX3), the log2 fold change was inactive: 0.007. Turning to SLC2A3 (UniProt P11169), the log2 fold change was inactive: -0.052.

Consider SLC25A29 (UniProt Q8N8R3), for which the log2 fold change is inactive: -0.279. Regarding SLC17A5 (UniProt Q9NRA2), the log2 fold change was inactive: -0.031. With SLC48A1 (UniProt Q6P1K1), the log2 fold change is inactive: 0.009. Next, SLC25A5 (UniProt P05141): inactive: 0.04; SLC39A10 (UniProt Q9ULF5): inactive: 0.015; SLC15A4 (UniProt Q8N697): inactive: 0.076. The figure for SLC7A5 (UniProt Q01650) is inactive: -0.006; for SLC7A11 (UniProt Q9UPY5) it is inactive: -0.014.

Consider SLC35C2 isoform 3 (UniProt Q9NQQ7), for which the log2 fold change is inactive: 0.065. As for SLC39A3 (UniProt Q9BRY0), the log2 fold change was inactive: -0.047. In the case of SLC52A2 (UniProt Q9HAB3), the log2 fold change is inactive: 0.048. As to SLC25A20 (UniProt O43772), the log2 fold change is inactive: -0.033. On to SLC25A21 (UniProt Q9BQT8), for which the log2 fold change was inactive: 0.024. Next, SLC39A8 (UniProt Q9C0K1): inactive: 0.091. As to SLC66A1 (UniProt Q6ZP29), the log2 fold change was inactive: 0.072. For SLC25A31 (UniProt Q9H0C2), the log2 fold change is inactive: -0.015. Consider SLC11A2 isoform 3 (UniProt P49281), for which the log2 fold change was inactive: 0.091.

As for SLC39A14 (UniProt Q15043), the log2 fold change is inactive: 0.007. Turning to SLC3A2 isoform 3 (UniProt P08195), the log2 fold change is inactive: 0.014. Take SLC1A4 (UniProt P43007): the log2 fold change is inactive: -0.024.

Take SLC25A35 (UniProt Q3KQZ1): the log2 fold change is inactive: -0.044.

Regarding SLC31A1 (UniProt O15431), the log2 fold change was inactive: 0.049. For the target SLC50A1 (UniProt Q9BRV3), the log2 fold change was inactive: -0.128.

As to SLC20A1 (UniProt Q8WUM9), the log2 fold change was inactive: 0.027. On to SLC25A30 (UniProt Q5SVS4), for which the log2 fold change is inactive: 0.146.
